According to paper PMC11242853, “The Antimicrobial Activity of Human Defensins at Physiological Non-Permeabilizing Concentrations Is Caused by the Inhibition of the Plasma Membrane H^+-ATPases” (International Journal of Molecular Sciences, 2024):

How the values were obtained:
[1] = design: method as in 19 sources, ref 24; PMID 3290255; doi:10.1172/JCI113527; 24. Lehrer R.I. Ganz T. Szklarek D. Selsted M.E. Modulation of the in vitro candidacidal activity of human neutrophil defensins by target cell metabolism and divalent cations J. Clin. Invest. 1988 81 || [47]; PMID 11083633; doi:10.1128/AAC.44.12.3310-3316.2000; 47. Edgerton M. Koshlukova S.E. Araujo M.W. Patel R.C. Dong J. Bruenn J.A. Salivary histatin 5 and human neutrophil defensin 1 kill Candida albicans via shared pathways Antimicrob. Agents Chemother. 2 ||| ref 20 = [20]; PMID 17074797; doi:10.1128/AAC.00478-06; 20. Vylkova S. Nayyar N. Li W. Edgerton M. Human beta-defensins kill Candida albicans in an energy-dependent and salt-sensitive manner without causing membrane disruption Antimicrob. Agents Chemother. ||| ref 24, 62 (HNP-1); 62, 63 (HNP-4); 20 (hBD-2); 12, 20 (hBD-3); 34, 35, 64 cidal and 65, 66 static (lactoferrin) ||| ref 26 (HNP-1); 12 (HNP-4); 11 (hBD-2, hBD-3); 43, 67 (lactoferrin) ||| ref 14 (HNP-1); 23 (HNP-4); Yes 11, 13 / No 20 (hBD-2); No 20 / Yes 11 (hBD-3); 31, 34, 42 (lactoferrin) ||| ...; conditions: Table 2; ref 14 (HNP-1); 23 (HNP-4); 20, 11, 13 (hBD-2); 20, 11 (hBD-3); 36, 44, 31, 42 (lactoferrin); cited from earlier work
[2] = Table 2 comparison of events associated with cell death pathways (literature and conclusions); conditions: conclusion of this study, no reference given

Row | Substance | Cell death type (yeast) [1] | Cellular target [2]
1 | HNP-1: human α-defensin, UniProtKB P59665, 30 amino acids, three disulfide bonds; purchased from PeptaNova | ND Permeabilization [14] | PM H^+-ATPase
2 | HNP-4: human α-defensin, UniProtKB P12838, 33 amino acids; purchased from PeptaNova (VCSCRLVFCRRTELRVGNCLIGGVSFTYCCTRV; Neutrophil defensin 4; UniProt P12838 64-96, looked up) | ND Permeabilization [23] | PM H^+-ATPase
3 | hBD-3: human β-defensin, UniProtKB Q5U7J2, 45 amino acids; purchased from PeptaNova (GIINTLQKYYCRVRGGRCAVLSCLPKEEQIGKCSTRGRKCCRRKK; Beta-defensin 103; UniProt P81534 23-67, looked up) | ND Permeabilization (No [20]/Yes [11, 20]) | PM H^+-ATPase
